{"source": "patent US20120077746", "about": "(published 2012)", "test": "Boc solid-phase peptide synthesis; MBHA resin; HBTU/DIEA", "conditions": "whole synthesis, analytical HPLC"}
{"substance": "(Aib^8.35)hGLP-1(7-36)NH2", "values": [{"measurement": "final HPLC purity", "result": 98.6, "unit": "%"}]}
